The values below come from US6933284.

By UniProt entry, the sequences of proteins in these tests, tags left out. Where a name states a change or a piece, a line headed by the entry shows the natural chain unless it says otherwise. Residues count along the entry.
human plasma LDL (P04114, residues 28-4563): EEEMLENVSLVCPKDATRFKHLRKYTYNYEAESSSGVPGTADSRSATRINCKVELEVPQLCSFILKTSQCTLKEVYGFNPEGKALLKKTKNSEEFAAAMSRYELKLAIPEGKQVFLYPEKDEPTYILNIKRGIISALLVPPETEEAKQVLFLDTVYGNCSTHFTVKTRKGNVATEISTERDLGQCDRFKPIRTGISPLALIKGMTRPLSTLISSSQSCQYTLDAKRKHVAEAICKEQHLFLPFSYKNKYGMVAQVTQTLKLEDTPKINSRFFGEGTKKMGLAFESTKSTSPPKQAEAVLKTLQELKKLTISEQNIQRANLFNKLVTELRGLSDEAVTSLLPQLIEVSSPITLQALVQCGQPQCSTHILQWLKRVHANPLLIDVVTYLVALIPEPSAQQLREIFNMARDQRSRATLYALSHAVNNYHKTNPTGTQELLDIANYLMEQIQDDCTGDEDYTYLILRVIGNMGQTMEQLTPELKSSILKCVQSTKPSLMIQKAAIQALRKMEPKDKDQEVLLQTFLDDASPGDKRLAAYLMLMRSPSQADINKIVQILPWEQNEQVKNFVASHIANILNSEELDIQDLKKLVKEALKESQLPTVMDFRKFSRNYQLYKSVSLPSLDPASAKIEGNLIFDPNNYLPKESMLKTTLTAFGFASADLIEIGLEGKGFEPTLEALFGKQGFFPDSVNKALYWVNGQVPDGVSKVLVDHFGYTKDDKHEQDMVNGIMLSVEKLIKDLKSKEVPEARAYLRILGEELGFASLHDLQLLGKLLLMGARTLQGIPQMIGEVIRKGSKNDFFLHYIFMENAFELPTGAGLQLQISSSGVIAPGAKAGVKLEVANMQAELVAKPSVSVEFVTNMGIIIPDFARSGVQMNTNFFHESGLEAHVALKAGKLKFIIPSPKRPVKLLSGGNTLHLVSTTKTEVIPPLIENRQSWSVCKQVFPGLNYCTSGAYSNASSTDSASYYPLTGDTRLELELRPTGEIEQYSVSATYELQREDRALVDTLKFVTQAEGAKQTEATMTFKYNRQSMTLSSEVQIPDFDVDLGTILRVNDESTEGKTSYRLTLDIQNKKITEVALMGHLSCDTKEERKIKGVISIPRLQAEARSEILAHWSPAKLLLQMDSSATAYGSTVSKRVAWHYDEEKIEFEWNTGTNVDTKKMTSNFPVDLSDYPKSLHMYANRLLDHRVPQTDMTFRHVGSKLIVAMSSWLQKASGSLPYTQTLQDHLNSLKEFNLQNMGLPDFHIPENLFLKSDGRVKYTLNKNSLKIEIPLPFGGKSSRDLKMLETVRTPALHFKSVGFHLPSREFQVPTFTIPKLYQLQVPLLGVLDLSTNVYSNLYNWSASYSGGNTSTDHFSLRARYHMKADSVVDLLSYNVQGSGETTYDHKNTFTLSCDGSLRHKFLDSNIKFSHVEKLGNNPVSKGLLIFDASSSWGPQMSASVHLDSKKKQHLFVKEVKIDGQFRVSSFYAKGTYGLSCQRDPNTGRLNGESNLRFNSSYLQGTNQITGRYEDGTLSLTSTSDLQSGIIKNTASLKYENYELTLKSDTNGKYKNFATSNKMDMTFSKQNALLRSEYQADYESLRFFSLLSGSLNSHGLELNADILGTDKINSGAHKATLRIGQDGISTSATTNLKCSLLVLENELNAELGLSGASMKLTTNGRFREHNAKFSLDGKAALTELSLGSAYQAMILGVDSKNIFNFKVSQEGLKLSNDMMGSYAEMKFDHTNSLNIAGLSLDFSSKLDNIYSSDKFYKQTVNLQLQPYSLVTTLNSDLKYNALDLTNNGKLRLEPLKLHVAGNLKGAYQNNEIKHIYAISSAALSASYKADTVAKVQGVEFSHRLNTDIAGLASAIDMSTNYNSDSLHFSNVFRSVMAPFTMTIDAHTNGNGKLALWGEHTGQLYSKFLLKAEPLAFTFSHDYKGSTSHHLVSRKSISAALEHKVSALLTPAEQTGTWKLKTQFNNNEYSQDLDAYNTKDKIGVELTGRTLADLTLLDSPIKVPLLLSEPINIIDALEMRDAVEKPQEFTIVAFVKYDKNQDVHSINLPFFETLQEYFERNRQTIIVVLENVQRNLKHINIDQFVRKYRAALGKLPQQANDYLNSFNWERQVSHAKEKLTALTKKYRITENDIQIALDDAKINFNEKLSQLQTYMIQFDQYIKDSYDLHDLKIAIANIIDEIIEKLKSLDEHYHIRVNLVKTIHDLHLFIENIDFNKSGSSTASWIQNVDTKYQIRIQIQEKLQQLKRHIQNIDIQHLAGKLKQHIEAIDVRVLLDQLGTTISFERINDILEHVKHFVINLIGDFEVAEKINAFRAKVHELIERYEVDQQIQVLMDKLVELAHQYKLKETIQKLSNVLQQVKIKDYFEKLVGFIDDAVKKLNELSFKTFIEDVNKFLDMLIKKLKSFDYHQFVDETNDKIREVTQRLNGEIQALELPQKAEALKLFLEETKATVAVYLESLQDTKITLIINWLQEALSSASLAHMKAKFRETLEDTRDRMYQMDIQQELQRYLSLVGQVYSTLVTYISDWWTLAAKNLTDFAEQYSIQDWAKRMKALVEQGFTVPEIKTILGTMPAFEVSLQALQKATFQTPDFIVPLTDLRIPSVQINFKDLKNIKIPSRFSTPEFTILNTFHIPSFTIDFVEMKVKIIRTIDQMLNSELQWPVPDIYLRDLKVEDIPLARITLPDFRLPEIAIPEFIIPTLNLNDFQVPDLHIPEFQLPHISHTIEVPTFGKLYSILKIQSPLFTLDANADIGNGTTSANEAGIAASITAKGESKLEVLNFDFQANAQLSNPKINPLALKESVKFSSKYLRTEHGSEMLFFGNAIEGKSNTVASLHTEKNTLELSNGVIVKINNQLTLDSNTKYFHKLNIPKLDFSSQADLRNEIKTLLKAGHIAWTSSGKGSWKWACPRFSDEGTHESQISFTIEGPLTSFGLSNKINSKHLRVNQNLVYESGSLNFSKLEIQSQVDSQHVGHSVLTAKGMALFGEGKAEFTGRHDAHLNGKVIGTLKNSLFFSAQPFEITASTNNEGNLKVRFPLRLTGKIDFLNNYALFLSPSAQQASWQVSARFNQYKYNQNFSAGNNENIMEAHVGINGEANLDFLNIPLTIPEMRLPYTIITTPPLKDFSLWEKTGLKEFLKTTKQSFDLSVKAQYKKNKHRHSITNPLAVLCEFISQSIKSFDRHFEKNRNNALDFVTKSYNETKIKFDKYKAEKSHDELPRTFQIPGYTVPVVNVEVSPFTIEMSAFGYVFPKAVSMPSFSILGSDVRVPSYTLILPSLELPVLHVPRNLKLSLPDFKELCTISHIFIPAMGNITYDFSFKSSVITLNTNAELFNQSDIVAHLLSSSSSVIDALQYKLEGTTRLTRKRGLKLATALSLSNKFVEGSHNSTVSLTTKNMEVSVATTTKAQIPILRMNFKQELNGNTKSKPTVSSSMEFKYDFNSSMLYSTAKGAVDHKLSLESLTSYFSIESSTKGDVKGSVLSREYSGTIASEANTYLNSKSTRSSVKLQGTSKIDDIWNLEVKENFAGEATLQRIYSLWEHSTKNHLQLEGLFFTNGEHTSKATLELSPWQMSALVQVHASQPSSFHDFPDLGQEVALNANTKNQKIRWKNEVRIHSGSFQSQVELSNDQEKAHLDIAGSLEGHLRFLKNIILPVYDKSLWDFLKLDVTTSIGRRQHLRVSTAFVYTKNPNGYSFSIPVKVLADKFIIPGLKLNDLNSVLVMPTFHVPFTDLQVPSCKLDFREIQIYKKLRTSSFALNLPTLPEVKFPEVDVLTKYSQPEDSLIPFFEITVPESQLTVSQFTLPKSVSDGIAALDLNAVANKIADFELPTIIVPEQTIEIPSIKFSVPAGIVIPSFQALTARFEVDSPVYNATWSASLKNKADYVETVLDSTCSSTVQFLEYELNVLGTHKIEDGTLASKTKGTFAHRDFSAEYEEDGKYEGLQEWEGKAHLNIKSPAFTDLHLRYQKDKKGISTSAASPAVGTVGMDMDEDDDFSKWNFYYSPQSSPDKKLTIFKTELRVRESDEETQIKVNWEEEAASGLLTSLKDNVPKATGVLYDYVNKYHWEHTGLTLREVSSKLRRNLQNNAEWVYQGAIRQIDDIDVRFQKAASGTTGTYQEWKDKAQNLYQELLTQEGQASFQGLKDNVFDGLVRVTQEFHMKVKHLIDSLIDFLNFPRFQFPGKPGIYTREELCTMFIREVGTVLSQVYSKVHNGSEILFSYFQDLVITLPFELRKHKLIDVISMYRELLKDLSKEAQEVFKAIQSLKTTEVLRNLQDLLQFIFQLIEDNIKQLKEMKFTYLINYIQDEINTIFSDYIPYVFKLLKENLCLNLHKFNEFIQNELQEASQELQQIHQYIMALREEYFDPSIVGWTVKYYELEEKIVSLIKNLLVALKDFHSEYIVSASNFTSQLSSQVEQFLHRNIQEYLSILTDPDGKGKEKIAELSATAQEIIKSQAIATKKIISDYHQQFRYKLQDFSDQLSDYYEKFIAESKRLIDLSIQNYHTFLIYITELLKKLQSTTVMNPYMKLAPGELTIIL

In experiment [1] the target is (35S)versican from cultured human arterial smooth muscle cells (human) (UniProt P13611). As to the kind of experiment: gel-mobility shift, data not shown.
The target is the same in experiment [2]. Kind of experiment: summary table, proteoglycan binding (biglycan and versican were the proteoglycans tested).
For experiment [3] the target is unchanged. Kind of experiment: gel-mobility shift, three independent experiments.
Experiment [4] has the same target. Kind of experiment: gel-mobility shift.
Experiment [5] deals with T1, (35S)biglycan from cultured human arterial smooth muscle cells (human) (UniProt P21810).
T1 sequence (glycosaminoglycan chains metabolically labeled with (35S)SO4, looked up): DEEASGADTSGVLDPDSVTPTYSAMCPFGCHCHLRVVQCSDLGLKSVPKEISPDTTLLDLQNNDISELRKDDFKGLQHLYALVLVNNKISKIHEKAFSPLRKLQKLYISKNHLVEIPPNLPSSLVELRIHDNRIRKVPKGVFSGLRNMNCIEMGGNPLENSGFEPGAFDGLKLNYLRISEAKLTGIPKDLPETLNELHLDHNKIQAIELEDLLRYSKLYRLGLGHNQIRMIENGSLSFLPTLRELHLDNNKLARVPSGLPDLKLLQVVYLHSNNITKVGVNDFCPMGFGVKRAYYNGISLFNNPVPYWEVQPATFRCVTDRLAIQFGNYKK
Kind of experiment: summary table, proteoglycan binding (biglycan and versican were the proteoglycans tested).

Experiment [6] has as its target T1, (35S)biglycan from cultured human arterial smooth muscle cells (human). As to the kind of experiment: gel-mobility shift, three independent experiments.

These are yes or no findings as the source states them, for the method shown. Some binding calls cover weakened binding; strength is not graded here.

Take “recombinant control LDL without the 'Leu-Leu' mutation (LDL generated by the unmodified apo-B100 P1 bacteriophage clone) (from UniProt P04114 28-4563) (ligand)”: in experiment [1], the binding entry is given as “binds”.
Regarding “recombinant control LDL (human apo-B100 with leucine in place of glutamine at position 2153) (from UniProt P04114 28-4563) (ligand)”, the binding result in experiment [2] and in experiment [3] was “binds” throughout.
As to “K3363E LDL (recombinant LDL, human apo-B100 with glutamic acid for lysine at residue 3363) (from UniProt P04114 28-4563) (ligand)”, in experiment [3], the binding result is “binds”.
Take “RK3359-3369SA LDL (recombinant LDL, human apo-B100 with the arginines of Site B changed to serines and the lysines to alanines) (from UniProt P04114 28-4563) (ligand)”: the binding result in experiment [4] and in experiment [3] was “binds” throughout.
With “human plasma LDL (from UniProt P04114 28-4563) (ligand)”, the binding result in experiment [3] is given as “binds”.
“R3500Q LDL (recombinant LDL, human apo-B100 with glutamine for arginine at residue 3500) (from UniProt P04114 28-4563) (ligand)”: the binding result in experiment [5], in experiment [2], in experiment [6] and in experiment [3] was “binds” in each case.
